These are yes or no findings as the source states them, for the method shown. Some binding calls cover weakened binding; strength is not graded here.

By UniProt entry, the sequences of proteins in these tests, tags left out. Where a name states a change or a piece, a line headed by the entry shows the natural chain unless it says otherwise. Residues count along the entry.
UniProt Q5VWK5, residues 24-353: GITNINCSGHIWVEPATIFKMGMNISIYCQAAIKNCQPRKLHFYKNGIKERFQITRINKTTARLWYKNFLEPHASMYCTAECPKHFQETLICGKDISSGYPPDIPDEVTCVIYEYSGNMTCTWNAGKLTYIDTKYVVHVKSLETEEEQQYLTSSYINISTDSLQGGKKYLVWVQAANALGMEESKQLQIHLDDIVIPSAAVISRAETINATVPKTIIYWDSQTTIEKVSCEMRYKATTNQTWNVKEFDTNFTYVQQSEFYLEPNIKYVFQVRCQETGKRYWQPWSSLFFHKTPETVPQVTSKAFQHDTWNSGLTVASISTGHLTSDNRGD
UniProt Q9NPF7: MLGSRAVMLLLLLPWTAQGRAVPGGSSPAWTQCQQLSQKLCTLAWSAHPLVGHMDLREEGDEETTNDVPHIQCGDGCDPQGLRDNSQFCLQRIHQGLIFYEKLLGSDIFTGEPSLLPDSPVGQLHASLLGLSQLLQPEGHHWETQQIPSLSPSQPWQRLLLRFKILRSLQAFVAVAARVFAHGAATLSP

The source of these data is US20260209332A1 (SORRISO PHARMACEUTICALS, published 2026).

The assay addresses IL-23 receptor (UniProt Q5VWK5). As to the kind of experiment: IL-23/IL-23R ELISA, IL-23 alone without inhibitor; concentration not shown. For orientation: An ELISA detects its analyte on a solid surface through an enzyme-linked reagent.

On to “interleukin-23 (IL-23) (from UniProt Q9NPF7 20-189; P29460 23-328) (ligand)”, for which the binding result was “binds”.
